Protein sequences, listed by entry. Tags and fused reporters are not part of them. Lines headed by an entry give the natural chain unless they say otherwise; changes in a name come on top.
UniProt Q8BWU5: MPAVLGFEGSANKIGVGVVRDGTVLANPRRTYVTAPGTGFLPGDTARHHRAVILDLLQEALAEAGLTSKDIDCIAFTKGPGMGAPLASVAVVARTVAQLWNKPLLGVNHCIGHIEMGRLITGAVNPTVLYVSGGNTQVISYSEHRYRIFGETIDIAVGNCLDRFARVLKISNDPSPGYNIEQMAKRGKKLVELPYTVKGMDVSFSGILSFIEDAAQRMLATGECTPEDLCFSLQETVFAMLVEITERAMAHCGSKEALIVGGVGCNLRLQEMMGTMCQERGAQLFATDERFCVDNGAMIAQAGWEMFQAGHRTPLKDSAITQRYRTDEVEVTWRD
UniProt Q8BJ48: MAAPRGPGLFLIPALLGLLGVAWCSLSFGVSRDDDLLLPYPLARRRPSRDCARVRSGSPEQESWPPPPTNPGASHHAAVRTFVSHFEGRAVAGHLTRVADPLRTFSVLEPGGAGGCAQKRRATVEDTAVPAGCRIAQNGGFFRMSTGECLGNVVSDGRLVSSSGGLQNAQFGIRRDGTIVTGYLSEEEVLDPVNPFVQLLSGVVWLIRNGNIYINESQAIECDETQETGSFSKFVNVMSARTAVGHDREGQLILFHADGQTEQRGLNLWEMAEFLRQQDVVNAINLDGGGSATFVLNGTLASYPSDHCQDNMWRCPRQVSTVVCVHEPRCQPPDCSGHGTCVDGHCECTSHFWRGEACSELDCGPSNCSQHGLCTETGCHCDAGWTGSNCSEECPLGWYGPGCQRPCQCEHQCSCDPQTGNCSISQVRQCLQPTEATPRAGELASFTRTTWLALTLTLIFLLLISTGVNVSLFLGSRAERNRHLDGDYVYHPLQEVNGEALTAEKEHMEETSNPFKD
UniProt Q8BXJ9: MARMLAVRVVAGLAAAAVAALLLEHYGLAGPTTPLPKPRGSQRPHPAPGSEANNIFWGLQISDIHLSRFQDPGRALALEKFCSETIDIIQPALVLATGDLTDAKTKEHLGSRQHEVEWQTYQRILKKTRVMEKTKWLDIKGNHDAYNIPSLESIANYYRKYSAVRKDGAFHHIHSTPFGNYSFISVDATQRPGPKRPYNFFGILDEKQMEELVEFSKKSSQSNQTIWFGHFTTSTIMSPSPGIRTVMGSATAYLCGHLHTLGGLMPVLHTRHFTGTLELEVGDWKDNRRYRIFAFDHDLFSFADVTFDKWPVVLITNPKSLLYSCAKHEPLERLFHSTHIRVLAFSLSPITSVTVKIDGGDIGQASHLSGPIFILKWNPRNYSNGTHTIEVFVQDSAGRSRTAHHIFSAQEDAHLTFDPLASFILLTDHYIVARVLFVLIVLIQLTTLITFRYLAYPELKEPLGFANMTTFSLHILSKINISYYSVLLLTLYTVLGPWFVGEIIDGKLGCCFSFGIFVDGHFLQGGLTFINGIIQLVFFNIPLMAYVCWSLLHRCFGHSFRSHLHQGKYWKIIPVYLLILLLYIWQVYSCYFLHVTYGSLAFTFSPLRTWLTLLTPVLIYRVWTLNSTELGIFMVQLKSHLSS
UniProt Q8CFJ7: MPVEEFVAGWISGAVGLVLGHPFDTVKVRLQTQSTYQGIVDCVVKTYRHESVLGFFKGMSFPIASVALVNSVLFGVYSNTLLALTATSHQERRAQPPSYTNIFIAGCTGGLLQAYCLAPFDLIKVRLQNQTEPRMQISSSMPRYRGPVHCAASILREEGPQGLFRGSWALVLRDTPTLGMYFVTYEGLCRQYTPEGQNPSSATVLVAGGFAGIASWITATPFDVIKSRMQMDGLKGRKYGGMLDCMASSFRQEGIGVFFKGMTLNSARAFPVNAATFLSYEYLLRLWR
UniProt Q8C0K5: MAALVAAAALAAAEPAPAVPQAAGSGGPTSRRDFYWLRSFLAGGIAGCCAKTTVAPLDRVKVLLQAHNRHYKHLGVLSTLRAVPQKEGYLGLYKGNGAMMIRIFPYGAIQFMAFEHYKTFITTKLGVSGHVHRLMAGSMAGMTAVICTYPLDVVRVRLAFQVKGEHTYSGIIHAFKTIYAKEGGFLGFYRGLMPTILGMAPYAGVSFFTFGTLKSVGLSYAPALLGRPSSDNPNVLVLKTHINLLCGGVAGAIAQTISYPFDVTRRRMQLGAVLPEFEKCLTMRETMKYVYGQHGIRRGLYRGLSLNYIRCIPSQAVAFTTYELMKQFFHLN
UniProt Q8CAQ8: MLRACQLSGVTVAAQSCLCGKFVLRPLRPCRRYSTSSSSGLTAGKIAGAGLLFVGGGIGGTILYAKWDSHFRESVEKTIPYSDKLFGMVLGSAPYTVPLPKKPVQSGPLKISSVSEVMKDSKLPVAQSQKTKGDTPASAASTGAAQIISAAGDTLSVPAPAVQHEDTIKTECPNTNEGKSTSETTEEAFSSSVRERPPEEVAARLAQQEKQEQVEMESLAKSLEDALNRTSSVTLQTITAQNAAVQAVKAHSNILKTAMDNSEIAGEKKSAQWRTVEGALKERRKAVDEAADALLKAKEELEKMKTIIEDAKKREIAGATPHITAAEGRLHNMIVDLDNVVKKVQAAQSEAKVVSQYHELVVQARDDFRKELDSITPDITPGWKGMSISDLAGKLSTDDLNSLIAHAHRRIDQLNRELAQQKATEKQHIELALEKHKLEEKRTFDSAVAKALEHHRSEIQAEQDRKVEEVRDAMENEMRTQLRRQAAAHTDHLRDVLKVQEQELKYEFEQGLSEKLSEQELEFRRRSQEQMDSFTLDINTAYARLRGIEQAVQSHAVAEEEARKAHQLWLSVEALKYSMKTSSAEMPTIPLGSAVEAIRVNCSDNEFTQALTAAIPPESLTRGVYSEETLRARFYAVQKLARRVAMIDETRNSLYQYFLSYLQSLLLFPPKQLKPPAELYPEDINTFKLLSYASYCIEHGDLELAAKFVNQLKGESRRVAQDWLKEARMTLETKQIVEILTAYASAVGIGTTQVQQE
UniProt Q8CGA3, whole entry, looked up: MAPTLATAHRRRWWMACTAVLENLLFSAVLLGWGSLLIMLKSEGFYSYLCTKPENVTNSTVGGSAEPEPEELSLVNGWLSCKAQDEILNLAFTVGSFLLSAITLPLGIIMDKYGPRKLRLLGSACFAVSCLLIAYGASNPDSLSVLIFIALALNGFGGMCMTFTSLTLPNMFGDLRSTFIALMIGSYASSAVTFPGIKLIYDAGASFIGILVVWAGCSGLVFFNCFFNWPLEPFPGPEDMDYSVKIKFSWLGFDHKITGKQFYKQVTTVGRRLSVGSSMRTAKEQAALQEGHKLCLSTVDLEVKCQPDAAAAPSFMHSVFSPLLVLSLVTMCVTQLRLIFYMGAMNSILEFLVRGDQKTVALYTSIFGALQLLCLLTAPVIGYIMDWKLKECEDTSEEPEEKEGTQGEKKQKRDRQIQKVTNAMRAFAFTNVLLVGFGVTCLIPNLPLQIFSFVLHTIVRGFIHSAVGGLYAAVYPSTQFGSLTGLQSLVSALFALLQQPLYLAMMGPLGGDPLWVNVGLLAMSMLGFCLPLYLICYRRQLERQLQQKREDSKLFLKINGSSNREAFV
UniProt Q8BT14: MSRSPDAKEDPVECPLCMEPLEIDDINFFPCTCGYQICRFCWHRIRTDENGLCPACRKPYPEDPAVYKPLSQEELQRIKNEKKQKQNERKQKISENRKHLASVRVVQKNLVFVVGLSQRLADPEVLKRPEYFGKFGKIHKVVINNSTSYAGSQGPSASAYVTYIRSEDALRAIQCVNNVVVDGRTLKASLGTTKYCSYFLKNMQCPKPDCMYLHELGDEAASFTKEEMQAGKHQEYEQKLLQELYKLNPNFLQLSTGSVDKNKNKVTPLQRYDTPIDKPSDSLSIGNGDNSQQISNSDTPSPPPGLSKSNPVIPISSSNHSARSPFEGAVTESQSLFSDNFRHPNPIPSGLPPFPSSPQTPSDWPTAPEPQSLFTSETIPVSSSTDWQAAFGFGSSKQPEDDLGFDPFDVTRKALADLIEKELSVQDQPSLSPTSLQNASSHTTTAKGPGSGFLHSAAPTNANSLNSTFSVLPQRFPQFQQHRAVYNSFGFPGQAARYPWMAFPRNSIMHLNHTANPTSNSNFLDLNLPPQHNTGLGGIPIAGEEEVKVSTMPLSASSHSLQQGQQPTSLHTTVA
UniProt Q8BNI4: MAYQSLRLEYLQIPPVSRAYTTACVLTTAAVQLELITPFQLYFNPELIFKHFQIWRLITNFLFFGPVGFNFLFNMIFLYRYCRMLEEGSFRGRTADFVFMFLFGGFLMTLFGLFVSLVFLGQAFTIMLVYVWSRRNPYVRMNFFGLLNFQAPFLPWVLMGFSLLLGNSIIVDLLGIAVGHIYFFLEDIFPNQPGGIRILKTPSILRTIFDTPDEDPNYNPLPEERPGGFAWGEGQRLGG
UniProt Q8BU04: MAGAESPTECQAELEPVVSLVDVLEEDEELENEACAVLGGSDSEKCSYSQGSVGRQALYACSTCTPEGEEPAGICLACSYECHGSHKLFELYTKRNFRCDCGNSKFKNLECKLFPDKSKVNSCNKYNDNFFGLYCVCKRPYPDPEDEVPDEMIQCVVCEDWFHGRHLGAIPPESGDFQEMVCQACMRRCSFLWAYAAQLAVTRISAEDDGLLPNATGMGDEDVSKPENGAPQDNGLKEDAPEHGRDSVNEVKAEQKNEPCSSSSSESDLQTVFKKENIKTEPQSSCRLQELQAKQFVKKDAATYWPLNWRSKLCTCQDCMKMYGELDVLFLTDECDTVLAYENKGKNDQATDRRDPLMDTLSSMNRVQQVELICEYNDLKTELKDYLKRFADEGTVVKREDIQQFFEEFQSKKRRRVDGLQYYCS
UniProt Q8BIJ6: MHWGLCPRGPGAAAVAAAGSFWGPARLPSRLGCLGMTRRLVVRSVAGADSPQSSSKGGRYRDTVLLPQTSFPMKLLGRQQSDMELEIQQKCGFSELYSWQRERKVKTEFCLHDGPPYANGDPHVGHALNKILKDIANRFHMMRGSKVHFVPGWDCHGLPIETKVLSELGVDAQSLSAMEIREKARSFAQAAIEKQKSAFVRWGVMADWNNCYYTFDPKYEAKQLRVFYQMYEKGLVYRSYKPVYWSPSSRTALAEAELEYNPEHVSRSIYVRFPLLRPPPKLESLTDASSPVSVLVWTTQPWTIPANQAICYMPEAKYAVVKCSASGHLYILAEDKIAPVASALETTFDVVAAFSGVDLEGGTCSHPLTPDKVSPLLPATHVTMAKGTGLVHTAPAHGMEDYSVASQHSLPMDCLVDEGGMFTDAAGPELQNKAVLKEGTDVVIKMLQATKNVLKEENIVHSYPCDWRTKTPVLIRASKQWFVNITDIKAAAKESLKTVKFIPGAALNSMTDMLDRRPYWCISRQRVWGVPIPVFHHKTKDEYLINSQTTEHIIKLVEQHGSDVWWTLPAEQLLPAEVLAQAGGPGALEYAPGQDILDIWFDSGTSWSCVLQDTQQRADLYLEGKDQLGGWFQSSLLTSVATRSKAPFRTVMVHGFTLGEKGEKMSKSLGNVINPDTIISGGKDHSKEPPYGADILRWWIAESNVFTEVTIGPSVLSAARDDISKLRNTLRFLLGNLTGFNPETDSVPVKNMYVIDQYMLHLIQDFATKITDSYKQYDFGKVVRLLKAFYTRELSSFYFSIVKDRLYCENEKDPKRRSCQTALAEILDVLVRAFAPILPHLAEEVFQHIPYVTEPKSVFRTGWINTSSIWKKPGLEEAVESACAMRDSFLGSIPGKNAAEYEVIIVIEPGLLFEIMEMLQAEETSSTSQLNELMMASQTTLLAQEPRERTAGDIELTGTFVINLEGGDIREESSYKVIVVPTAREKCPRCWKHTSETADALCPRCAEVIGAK
UniProt Q8BVF7, whole entry: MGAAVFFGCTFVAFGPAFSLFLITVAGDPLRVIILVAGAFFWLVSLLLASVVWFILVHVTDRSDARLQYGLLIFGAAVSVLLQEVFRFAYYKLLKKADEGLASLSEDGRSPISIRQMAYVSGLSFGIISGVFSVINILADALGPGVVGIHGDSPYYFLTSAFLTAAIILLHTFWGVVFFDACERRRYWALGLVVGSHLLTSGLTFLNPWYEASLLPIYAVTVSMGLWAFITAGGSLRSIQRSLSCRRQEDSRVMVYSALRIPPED
UniProt Q8CCI5: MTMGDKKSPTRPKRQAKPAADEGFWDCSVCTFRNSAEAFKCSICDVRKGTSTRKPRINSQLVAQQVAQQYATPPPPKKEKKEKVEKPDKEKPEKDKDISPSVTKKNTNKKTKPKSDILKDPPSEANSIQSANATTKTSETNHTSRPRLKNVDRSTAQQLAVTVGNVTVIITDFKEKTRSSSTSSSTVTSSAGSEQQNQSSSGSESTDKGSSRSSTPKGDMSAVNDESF
UniProt Q8C181: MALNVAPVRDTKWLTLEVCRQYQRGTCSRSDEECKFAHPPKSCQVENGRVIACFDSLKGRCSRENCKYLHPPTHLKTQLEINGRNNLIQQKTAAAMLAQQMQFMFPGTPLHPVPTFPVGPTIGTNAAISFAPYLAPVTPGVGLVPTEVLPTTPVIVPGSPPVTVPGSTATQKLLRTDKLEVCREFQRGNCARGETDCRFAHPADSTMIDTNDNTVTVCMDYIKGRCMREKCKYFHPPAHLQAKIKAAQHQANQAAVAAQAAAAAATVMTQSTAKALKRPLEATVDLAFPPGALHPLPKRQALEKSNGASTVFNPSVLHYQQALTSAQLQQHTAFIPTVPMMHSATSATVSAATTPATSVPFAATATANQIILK

The list shows a part of the results. Small differences around the control level are noise.
The targets below were run with CN[C@@H]1C[C@H]2O[C@@](C)([C@@H]1OC)n1c3ccccc3c3c4c(c5c6ccccc6n2c5c31)C(=O)NC4 [staurosporine] (assay: log2 fold change of pooled soluble protein (PISA), ligand vs vehicle (log2 ratio); higher = more thermally stabilized). Conditions: ligand concentration: 20 uM; assay format: PISA pool 52.9/55.5/58.6 C.
In the case of UniProt Q8BWU5, the “log2 fold change of pooled soluble protein” value (“log2 fold change” for short) is reported as 0.103. In the case of UniProt Q8BJ48, the “log2 fold change” value is reported as 0.0232. In the case of UniProt Q8BXJ9, the “log2 fold change” value is reported as -0.095. In the case of UniProt Q8BU33, the “log2 fold change” value is reported as 0.105. With UniProt Q8CFJ7 the “log2 fold change” value was -0.154. In the case of UniProt Q8C0K5, the “log2 fold change” value is reported as -0.049. With UniProt Q8BLK3 the “log2 fold change” value was -0.345. UniProt Q8C3B8 was tested, and the “log2 fold change” value was -0.37. UniProt Q8BY87 was tested, and the “log2 fold change” value was -0.179. In the case of UniProt Q8BU11, the “log2 fold change” value is reported as 0.119. UniProt Q8C7G5 was tested, and the “log2 fold change” value was -0.027. In the case of UniProt Q8CAQ8, the “log2 fold change” value is reported as -0.0573. For UniProt Q8BQU3, the “log2 fold change” value was -0.00928. With UniProt Q8CGA3 the “log2 fold change” value was -0.151. In the case of UniProt Q8BT14, the “log2 fold change” value is reported as -0.0592. UniProt Q8BP27 was tested, and the “log2 fold change” value was -0.166. For UniProt Q8BIZ6, the “log2 fold change” value was 0.103. With UniProt Q8BTY1 the “log2 fold change” value was -0.0861. For UniProt Q8CF02, the “log2 fold change” value was 0.0669. For UniProt Q8C8R3, the “log2 fold change” value was 0.0729. For UniProt Q8BHD7, the “log2 fold change” value was -0.154. For UniProt Q8BXN7, the “log2 fold change” value was 0.0629. In the case of UniProt Q8BNI4, the “log2 fold change” value is reported as -0.294. UniProt Q8BU04 was tested, and the “log2 fold change” value was -0.0823. UniProt Q8BWW9 was tested, and the “log2 fold change” value was -0.00685. UniProt Q8BI84 was tested, and the “log2 fold change” value was 0.00727. In the case of UniProt Q8BIJ6, the “log2 fold change” value is reported as -0.00491. For UniProt Q8BVF7, the “log2 fold change” value was -0.0559. With UniProt Q8BHL3 the “log2 fold change” value was -0.261. UniProt Q8BTR5 was tested, and the “log2 fold change” value was -0.0379. With UniProt Q8BH60 the “log2 fold change” value was 0.0185. In the case of UniProt Q8CCI5, the “log2 fold change” value is reported as 0.616. With UniProt Q8BND5 the “log2 fold change” value was -0.154. With UniProt Q8C181 the “log2 fold change” value was 0.0328. In the case of UniProt Q8BHA3, the “log2 fold change” value is reported as 0.128. With UniProt Q8BXA1 the “log2 fold change” value was -0.0397.

Reference: the supplement of paper PMC12819154, “High-throughput peptide-centric local stability assay extends protein–ligand identification to membrane proteins, tissues and bacteria” (Nature Structural & Molecular Biology, 2025)
